Data from patent US7662644B2, “Labeled peptides, proteins and antibodies and processes and intermediates useful for their preparation” (priority 2000, dated 2010).
At least one structure is not confirmed: it was looked up by name or label, or the drawing left a doubt.

Assay: Spectral data for selected merocyanine dyes (absorbance and fluorescence spectra)
Format: physicochemical
Set-up: Absorption Maximum / Emission Maximum: unit not given here
Details: in n-butanol
Procedure: Absorbance spectra were recorded on Hewlett-Packard HP8452 diode array spectrophotometer and fluorescence spectra were recorded on SPEX Fluorolog 2 spectrometer.

O=C1/C(=C/C=C/C=C2/Sc3ccccc3N2CCCS(=O)(=O)[O-])S(=O)(=O)c2ccccc21.[Na+] [Compound 2, (2Z)-2-[(2E,4E)-4-(3-(3-SULFONATOPROPYL)-1,3-BENZOTHIAZOL-2(3H)-YLIDENE)BUT-2-ENYLIDENE]-1-BENZOTHIOPHEN-3(2H)-ONE 1,1-DIOXIDE]
Absorption Maximum: 603 | Emission Maximum: 623 | Extinction coefficient (*10^−3): 100 | Quantum Yield: 0.10
